Results taken from article PMC8502442 (Pharmacology Research & Perspectives, 2021).

Tests used:
[1] = rat; cited from earlier work
[2] = Rat pharmacokinetics following an IV single bolus; type: in vivo; conditions: plasma, 1 mg/kg

Row | SMILES | hepatic CL [1] | renal CL [1] [mL/min/kg] | reported plasma CL [1] [mL/min/kg] | clearance [2] [mL/min/kg]
1 | CC(C)NCC(O)COc1ccc(CC(N)=O)cc1 (centres unmarked) [Atenolol, atenolol] | about 14 ml/min/kg | ~13 | 26.0 | 
2 | CN(C)CCOC(c1ccccc1)c1ccccc1 [Diphenhydramine, diphenhydramine] |  |  | 115 | 152 ± 11
